Paper PMC4481407
Results are given in words; binding and its absence hold for the method and conditions named. Binding calls can cover weak binding; strength is not graded here. Where a sequence is shown, tags or fusion partners need not be part of it.

Key:
Assay in all cases: pull-down; GST-HOAP polypeptides of different length on sepharose beads with bacterially expressed 6His-Peo; 20 mM Hepes KOH, 20 mM NaF, 0.8% NP40, 1 h at 4°C; His-Peo detected with anti-Peo antibody; both purified
[1] = target: GST-HOAP ∆1–3 (Drosophila melanogaster)
[2] = target: GST-HOAP ∆2, 3 (Drosophila melanogaster)
[3] = target: GST-HOAP ∆3 (Drosophila melanogaster)

Measured: binding

B1: 6His-Peo (protein, UniProt Q7K4V4 1-244)
chain: MTLDLDAHKKDDKLLITTIQQEYKILAEYKMIESEKLSGIYVIPSYANSLQWFGVFFGRQGLYAESVFRFTILLPDRFPDDKSLPSIIFQQDVIHPHVCPYTHSLDVSHAFPEWRCGEDHLWQLLKYLQVIFSDPLDSIRGIEVDKLKNSEAAELLMNNKEEYVARVQENIKESKEHIFDTPPTEDPHYIVFEKFQQDVHGPVLERIKAGRSKLTEPSAQQANGGHATGLSWVKEGEFKPLSIE
binds: all assays above
